The target of assay [1] is rat GST-AR domain fusion protein AR541-919/DBD+LBD (rat) (UniProt P15207). Kind of assay: GST-pulldown of [35S]-labeled in vitro translated protein, autoradiography.
Assay [2] has the same target. Kind of assay: GST-pulldown (GST-AR DBD+LBD on glutathione-agarose), Western blot with anti-DDC. (A western blot detects proteins with antibodies after separation by electrophoresis.)
Assay [3] shares this target. Kind of assay: GST-pulldown, Western blot with anti-DDC (legend of FIG. 2A).

Sequences of proteins named here, by UniProt entry; tags and fusion partners are left off. Residues count along the entry.
UniProt P15207, residues 524-902: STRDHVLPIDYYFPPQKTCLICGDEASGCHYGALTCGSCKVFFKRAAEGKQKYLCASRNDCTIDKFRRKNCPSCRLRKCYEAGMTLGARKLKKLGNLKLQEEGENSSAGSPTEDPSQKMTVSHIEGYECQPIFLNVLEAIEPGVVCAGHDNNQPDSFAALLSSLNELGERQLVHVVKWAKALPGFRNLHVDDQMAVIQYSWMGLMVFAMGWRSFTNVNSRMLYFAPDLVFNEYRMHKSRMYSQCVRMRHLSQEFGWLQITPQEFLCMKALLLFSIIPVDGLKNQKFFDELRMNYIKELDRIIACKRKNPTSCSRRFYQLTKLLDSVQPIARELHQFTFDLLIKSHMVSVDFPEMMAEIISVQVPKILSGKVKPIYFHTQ

No constants are given. Whether binding was seen depends on the method and setting. In cells and extracts the contact can be indirect. Some binding calls cover weakened binding; strength is not graded here. For some of these results: Where a sequence is shown, tags or fusion partners need not be part of it.

B1: mutant DDC with Lys303Ile in the PLP cofactor binding site, in vitro transcribed/translated from pDEST12.2-mt-DDC (enzyme, UniProt P20711 1-480, looked up)
chain: MNASEFRRRGKEMVDYMANYMEGIEGRQVYPDVEPGYLRPLIPAAAPQEPDTFEDIINDVEKIIMPGVTHWHSPYFFAYFPTASSYPAMLADMLCGAIGCIGFSWAASPACTELETVMMDWLGKMLELPKAFLNEKAGEGGGVIQGSASEATLVALLAARTKVIHRLQAASPELTQAAIMEKLVAYSSDQAHSSVERAGLIGGVKLKAIPSDGNFAMRASALQEALERDKAAGLIPFFMVATLGTTTCCSFDNLLEVGPICNKEDIWLHVDAAYAGSAFICPEFRHLLNGVEFADSFNFNPHIWLLVNFDCSAMWVKKRTDLTGAFRLDPTYLKHSHQDSGLITDYRHWQIPLGRRFRSLKMWFVFRMYGVKGLQAYIRKHVQLSHEFESLVRQDPRFEICVEVILGLVCFRLKGSNKVNEALLQRINSAKKIHLVPCHLRDKFVLRFAICSRTVESAHVQRAWEHIKELAADVLRAERE
modifications: radiolabeled with [35S]-methionine
Regarding B1, in assay [1], the binding entry is “binds”.

B2: wild-type DDC, in vitro transcribed/translated from pDEST12.2-DDC (enzyme, UniProt P20711 1-480, looked up)
chain: MNASEFRRRGKEMVDYMANYMEGIEGRQVYPDVEPGYLRPLIPAAAPQEPDTFEDIINDVEKIIMPGVTHWHSPYFFAYFPTASSYPAMLADMLCGAIGCIGFSWAASPACTELETVMMDWLGKMLELPKAFLNEKAGEGGGVIQGSASEATLVALLAARTKVIHRLQAASPELTQAAIMEKLVAYSSDQAHSSVERAGLIGGVKLKAIPSDGNFAMRASALQEALERDKAAGLIPFFMVATLGTTTCCSFDNLLEVGPICNKEDIWLHVDAAYAGSAFICPEFRHLLNGVEFADSFNFNPHKWLLVNFDCSAMWVKKRTDLTGAFRLDPTYLKHSHQDSGLITDYRHWQIPLGRRFRSLKMWFVFRMYGVKGLQAYIRKHVQLSHEFESLVRQDPRFEICVEVILGLVCFRLKGSNKVNEALLQRINSAKKIHLVPCHLRDKFVLRFAICSRTVESAHVQRAWEHIKELAADVLRAERE
modifications: radiolabeled with [35S]-methionine
Take B2: the binding result in assay [1] is reported as “binds”.

B3: purified His-tagged-DDC protein (6x-His N-terminal fusion of dopa decarboxylase) (enzyme, human, UniProt P20711 2-480, looked up, not shown: small tags and cut ends)
chain: NASEFRRRGKEMVDYMANYMEGIEGRQVYPDVEPGYLRPLIPAAAPQEPDTFEDIINDVEKIIMPGVTHWHSPYFFAYFPTASSYPAMLADMLCGAIGCIGFSWAASPACTELETVMMDWLGKMLELPKAFLNEKAGEGGGVIQGSASEATLVALLAARTKVIHRLQAASPELTQAAIMEKLVAYSSDQAHSSVERAGLIGGVKLKAIPSDGNFAMRASALQEALERDKAAGLIPFFMVATLGTTTCCSFDNLLEVGPICNKEDIWLHVDAAYAGSAFICPEFRHLLNGVEFADSFNFNPHKWLLVNFDCSAMWVKKRTDLTGAFRLDPTYLKHSHQDSGLITDYRHWQIPLGRRFRSLKMWFVFRMYGVKGLQAYIRKHVQLSHEFESLVRQDPRFEICVEVILGLVCFRLKGSNKVNEALLQRINSAKKIHLVPCHLRDKFVLRFAICSRTVESAHVQRAWEHIKELAADVLRAERE
For B3, the binding result in assay [2] and in assay [3] was “binds” each time.

Source of the values: patent US20100048709A1 (UNIVERSITY OF BRITISH COLUMBIA, published 2010).
